Results are given in words; binding and its absence hold for the method and conditions named. Binding seen in cells or lysates may run through a third protein. Binding can be weak; no strength is given.
Molecular target: HS-TNFα (human) (UniProt P01375)
Assay: pull-down; N4BP1+/+ MEFs stimulated with HS-TNFα (1 μg/ml, 5 min); TNFα-bound signalling complex (TNFR1-SC) pulled down from the lysate with Strep-tactin resin; Western blot; only the target purified

Protein sequences, listed by entry. Tags and fused reporters are not part of them. Lines headed by an entry give the natural chain unless they say otherwise; changes in a name come on top.
UniProt P01375: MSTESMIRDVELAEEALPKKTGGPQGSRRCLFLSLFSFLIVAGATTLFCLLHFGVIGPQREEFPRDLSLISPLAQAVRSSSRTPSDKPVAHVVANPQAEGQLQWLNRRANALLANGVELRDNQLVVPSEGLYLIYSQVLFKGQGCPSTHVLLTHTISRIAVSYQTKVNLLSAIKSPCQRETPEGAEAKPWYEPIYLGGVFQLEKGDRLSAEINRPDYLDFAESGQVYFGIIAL

binding: binds
B1: endogenous mouse N4BP1 (protein, UniProt Q6A037 1-893)
chain: MAARVVLDEFTAPAEKAALLERSRGRIEALFGVGLAVLGALGAEEPLPARIWLQLRGAQEAVHSAKEYIKGICEPELEEKECYPKAMHCIFVGAQSLFLKSLIQDTCADLCVLDTGLLGIRGSAEAVVMARSHIQQFVKLFESNENLPSNQRESEIKREFRQFVEAHADSYTMDLLILPTSLKKELLSLTQGEESLFETDDDVITVGDVRPPEYTQSAATGPSSARDEVVVQEDSRNKARTPVSELTKHMDTVFSSSPDVLFVPVNGLSPDEDALSKDRVCHKRRSSDTEERHTKKQFSLENVPEGELLPDGKGSAGNEVIDLSDPASNSTNLSPDGKDTTEEMEYNILVNFFKTMGYSQEIVEKVIREYGPSTEPLLLLEEIEKENKRLQEDRDFPPCTVYPDASQSRNAGVGSTTNELTADSTPKKAQSHTEQSMVERFSQLPFKDSKHCTSNCKVNSFRTVPVGQKQEIWGSKQNSSCTVDLETDGHSASAASASPKDISFVSRGASGHQQRNPAFPENGFQQQTEPLLPNNTKPACEKRSGSCSSPQPKPNYPPLSPPLPLPQLLPSVTEARLGGSSDHIDSSVTGVQRFRDTLKIPYKLELKNEPGRADLKHIVIDGSNVAITHGLKKFFSCRGIAIAVEYFWKLGNRNITVFVPQWRTRRDPNITEQHFLTQLQELGILSLTPARMVFGERIASHDDRFLLHLADKTGGIIVTNDNFREFVTESVSWREIITKRLLQYTFVGDIFMVPDDPLGRNGPRLEEFLRKEAFLRHMQPLLNALPSVGTFDPGFRSPSTQVANNSHQPPPRIQTSSSPWLPQQSHFTALATLPSMQQNPPLPAQRSSAETSELREALLKIFPDSEQKLKIDQILAAHPYMKDLNALSALVLD

Reference: publication PMC11032371
